## Percent effect of library compounds

From ChEMBL document CHEMBL3988442, “University of Dundee, Small-Polar-MMV Screening Library” (2021).

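Assay of Toxoplasma gondii numbers, read through their beta-galactosidase reporter with a colour substrate. Concentration: 50 µM. Higher reads as fewer parasites (inferred from which compounds were picked for retests). About 18,000 compounds were tested under these conditions; 0.94% (about 170) showed 50% or more at least once.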

Values are the deposited “Percent Effect”, in %. The record does not define 0% and 100%; most values in the screen are far below 50% and negative numbers occur (in some assays of this library far below -100). Compounds were drawn at random from those tested, without regard to their results.

structure | percent effect
NC(=O)CNCc1cc(O)c2cccc(Cl)c2n1 | -8.364
CCOc1cc(CNCCO)c(Cl)cc1OC | 4.536
COc1ccc(Cl)cc1NCC(N)=O | -5.369
O=C1CCN(Cc2cc(Br)cc3cccnc23)CCN1 | -6.133
NC(=O)N1CCCC(C(=O)N2CCNC(=O)C2)C1 (stereo not shown) | -6.037
O=C(CN1CCCC1)N1CCc2sccc2C1 | 24.15
NCC(=O)Nc1cc(C(F)(F)F)c[nH]c1=O | -2.166
N#CC1=C(N)n2ncnc2NC1c1ccccc1 (stereo not shown) | -2.386
COCC(=O)Nc1cnc(-c2cccnc2)nc1 | -10.63
CSCCN(C)Cc1cn(-c2ccccc2)nn1 | 1.322
Cc1ccc(-c2cc(C(N)=O)[nH]n2)cc1C | -16.64
NCCNC(=O)CCOc1ccccc1 | -7.213
CCCNc1cc(-n2cccn2)ncn1 | 18.1
COc1ccccc1NC(=O)CNCC(C)C | -2.714
COCC(=O)Nc1c[nH]nc1C1CCCNC1 (stereo not shown) | -10.17
CCN(Cc1nc(C)cs1)[C@H]1COC[C@@H]1O | -5.172
N#CC1(C(=O)NCc2ccc(O)c(F)c2)CCCC1 | 4.43
O=C(c1sccc1Cl)N1C[C@H](O)[C@@H](N2CCOCC2)C1 | 4.651
COc1cc(Cl)ccc1CN1CCNC(=O)C1 | 3.488
COCC(=O)NCCc1cc(Cl)c2c(c1)OCCO2 | -0.1362
CNC(=O)CCC1CCCCN1 (stereo not shown) | -6.422
Cn1ccc(C(=O)NCc2cccs2)cc1=O | -31.59
Cc1ccc(C(CN)N2CCCC2)o1 (stereo not shown) | 5.989
CC1c2ccsc2CCN1CCC(=O)N(C)C (stereo not shown) | -1.701
COCCOCCn1nc(C)c(C#N)c1N | -7.207
CC(=O)c1cccc(C(=O)N2CCCC(C#N)C2)c1 (stereo not shown) | 12.1
Cc1noc(C)c1CNC(=O)CCn1nnnc1C | 33.07
COc1cccc(Nc2ncnc(N)n2)c1 | -24.25
CC(C)CCC(=O)N1CCC2(CC1)CC(O)CCO2 (stereo not shown) | 24.06
NC(=O)C(Cc1ccccc1)NC(=O)c1ccccc1 (stereo not shown) | 14.78
Fc1ccc(C2CCNC2)nc1 (stereo not shown) | 2.245
NCc1cccc(S(=O)(=O)N2CCCCC2)c1 | 22.85
COCCN(Cc1ccco1)C(=O)c1cccnc1O | -9.562
CC(C)(C)CNCCC#N | -12.29
COCCN1CCCN(C(=O)C(C)C)CC1 | 9.533
CCNC(=O)CC1CCCCN1CCOC (stereo not shown) | -6.638
CN(C)C(CNC1=NCCN1)c1ccsc1 (stereo not shown) | 15.34
O=C(CC1CCCC1)Nc1ccc2c(c1)NC(=O)CO2 | 6.805
NC1CCNC(=O)CC1 (stereo not shown) | -24.59
O=C(NCC(F)(F)CO)c1cccnc1OCC(F)F | -26.61
Cc1cc(C)n(CCO)c(=O)n1 | -1.696
CC(C)(C)C(=O)CNC(=O)c1ccc[nH]1 | -0.6495
CC(C)(CN)C1(O)CCCC1 | 33.44
CC(C)OC(=O)c1cccnc1NCc1ccncc1 | -13.64
CCCC(=O)N1CCN(C(=O)NCC)CC1 | 54.38
c1cc(N2CCCC2)ncc1CN1CCCSCC1 | 0.7771
COc1cccc(CNC2CCN(C(C)=O)CC2)c1 | -10.17
CN1CCCN(C(=O)Nc2ccc(Cl)cc2)CC1 | -4.144
CNCc1cnn(Cc2ccccc2)c1 | 22.05
Cc1cc(C(=O)NCC(C)c2nc(C)cs2)nc(N)n1 (stereo not shown) | -19.47
O=C(CCCc1cn[nH]c1)NCC[C@@H]1CCCN1 | -9.784
CC(C)Cc1cc(CNC(=O)CSc2cnn[nH]2)no1 | 6.698
Cc1ccn2c(C(=O)N[C@@H]3CC[C@@H](N)C3)c(C)nc2c1 | -2.096
COCCN(Cc1ccco1)S(=O)(=O)CCOC | -9.69
O=S(=O)(NC1CCCC1)c1cncc(Cl)c1 | -1.658
CCC(CNS(=O)(=O)N(C)CC)c1ccccc1 (stereo not shown) | 13.29
Cc1ccc2c(c1)C(N)C(=O)N2C (stereo not shown) | -9.564
Cc1nnnn1-c1cccc(-n2cnnn2)c1 | -6.104
CNCC(=O)NCCc1nc(-c2cccnc2)n[nH]1 | -2.879
Cc1nn(C)c(Cl)c1C(=O)N1CC(n2cccn2)C1 | -27
CCc1ccc(CN(C)C(=O)c2cccc(N)n2)nc1 | -8.918
O=C(NC1COC2(CCCCC2)C1)c1cnc[nH]1 (stereo not shown) | 13.84
OCCCNc1cccc(Cl)c1-n1cccn1 | 15.64
O=C(c1ccc(Br)s1)N1CCN(c2ccccn2)CC1 | -11.27
CC(C)c1nc(CNC(=O)c2ccc(C#N)cc2)no1 | -5.518
CCOCCN1CCN(CCc2ccncc2)CC1 | 9.084
CCc1cccc2c(C(C)=O)cn(CC(N)=O)c12 | 4.381
CS(=O)(=O)NCC(=O)NC(C#N)c1ccc(Cl)c(Cl)c1 (stereo not shown) | -0.344
COc1cc(CNCc2ccccn2)ccc1O | 1.722
CN(Cc1cccnc1)CC1(CO)CC1 | 0.2037
Cc1cc(NC(=O)CCN(C)CC2(O)CCCC2)no1 | -0.6112
Cc1cccnc1NC(=O)C(C)NC(=O)c1ccoc1 (stereo not shown) | -0.3724
Oc1ccc(CNc2cccc(-c3nnc[nH]3)c2)cc1 | 10.67
O=C(NCC1(CO)CCOCC1)c1n[nH]c2c1CCC2 | -7.465
O=C(NCC1(O)CCNC1)c1cccc(OC(F)F)c1 (stereo not shown) | 2.427
CS(=O)(=O)NCc1ccc(CN2CCCC2=O)cc1 | 69.78
CCC(C)NCC(=O)OC (stereo not shown) | 16.85
Cc1n[nH]c2c1C(c1ccc(O)cc1)CC(=O)N2 (stereo not shown) | -3.327
CCC(C)(C)NC(=O)c1nn(-c2ccccc2)nc1C | 5.547
O=C(Nc1nncs1)c1ccccn1 | 1.785

The first 5 entries again:

* NC(=O)CNCc1cc(O)c2cccc(Cl)c2n1 | -8.364%
* CCOc1cc(CNCCO)c(Cl)cc1OC | 4.536%
* COc1ccc(Cl)cc1NCC(N)=O | -5.369%
* O=C1CCN(Cc2cc(Br)cc3cccnc23)CCN1 | -6.133%
* NC(=O)N1CCCC(C(=O)N2CCNC(=O)C2)C1 (stereo not shown) | -6.037%